PubChem BioAssay AID1259263 | Sanger Institute, 2017
Purpose: 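Find siRNA and drug combinations lethal together in bowel cancer cells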 (follow-up of hits). Cell system: SW1463 human colorectal cancer cell line. Reagent: single siRNA against human genes. Challenge: anchor drugs BYL719 at 1 µM, cetuximab at 5 µg/ml or trametinib at 10 nM, or DMSO vehicle, added one day after siRNA transfection. Read-out: 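Viability relative to a non-targeting siRNA control, averaged over replicates, plus a synergy score contrasting measured with expected viability loss for knock-down and drug combined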. Scale: synergy score with trametinib and synergy score with BYL719 and synergy score with cetuximab: higher = stronger synthetic lethal effect with the drug; viability with trametinib: higher = more cells survive knock-down plus drug; viability with vehicle only: higher = more cells survive the knock-down. Hit rule: 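Called active if the synergy score is above 0.10 for one or more of the three anchor drugs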. Meaning of the calls: active = synergy with at least one drug; inactive = no synergy with any drug.
In all, the deposit lists 160 reagents; this is an unselected part. Over the whole deposit, 101 (63%) are marked active. 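Drug doses chosen to kill few cells alone; each row is one siRNA, and a gene counts as confirmed only if two or more siRNAs show synergy.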 Reagents against one gene are numbered here. Viability is capped at 1. Not stated in the record: the amount of reagent, the time to read-out.

no.	Gene	siRNA no.	synergy score with trametinib	synergy score with BYL719	synergy score with cetuximab	viability with trametinib (fraction of control)	viability with vehicle only (fraction of control)	call
1	PINK1	1	0.0649	-0.0704	0.0278	0.678	1	inactive
2	PINK1	2	0.202	0.0419	0.177	0.415	0.83	active
3	PINK1	3	0.0617	-0.0805	-0.116	0.318	0.511	inactive
4	PINK1	4	0.19	-0.00518	0.168	0.452	0.864	active
5	PAK1	1	0.248	-0.0498	0.00981	0.355	0.812	active
6	PAK1	2	0.185	-0.0336	0.0947	0.248	0.582	active
7	PAK1	3	0.216	-0.0938	0.119	0.381	0.804	active
8	PAK1	4	0.228	-0.0704	-0.00192	0.515	1	active
9	GRK5	1	-0.343	0.1	0.164	0.971	0.845	
10	GRK5	2	0.103	-0.128	0.0787	0.585	0.927	active
11	GRK5	3	0.206	0.245	-0.0953	0.496	0.945	active
12	GRK5	4	0.149	0.0692	0.142	0.57	0.968	active
13	BMPR2	1	0.00557	0.114	0.147	0.737	1	
14	BMPR2	2	0.332	0.157	0.122	0.363	0.934	active
15	BMPR2	3	0.151	-0.17	-0.00317	0.507	0.886	active
16	BMPR2	4	-0.195	0.0288	-0.175	0.938	1	inactive
17	IRAK3	1	0.257	-0.129	0.0855	0.278	0.719	active
18	IRAK3	2	0.233	-0.0857	0.126	0.24	0.637	active
19	IRAK3	3	-0.0592	-0.241	0.0852	0.563	0.678	inactive
20	IRAK3	4	0.113	0.0696	-0.0613	0.63	1	active
21	HSPB8	1	0.146	-0.118	0.0674	0.559	0.949	active
22	HSPB8	2	0.212	0.053	0.0757	0.521	0.986	active
23	HSPB8	3	-0.182	-0.142	0.0311	0.867	0.923	inactive
24	HSPB8	4	0.18	-0.0279	0.274	0.545	0.975	active
25	HUNK	1	0.207	0.16	0.0822	0.452	0.886	active
26	HUNK	2	0.278	0.00479	-0.0339	0.259	0.723	active
27	HUNK	3	0.221	0.0978	0.178	0.47	0.93	active
28	HUNK	4	0.17	0.0398	0.18	0.389	0.752	active
29	CDK6	1	-0.00509	-0.114	0.0281	0.578	0.771	inactive
30	CDK6	2	0.362	0.171	0.151	0.147	0.686	active
31	CDK6	3	0.194	-0.118	0.0287	0.329	0.704	active
32	CDK6	4	0.241	0.232	0.327	0.403	0.867	active
33	MAPKAPK2	1	0.0835	0.162	0.0426	0.66	1	
34	MAPKAPK2	2	0.252	0.0358	0.109	0.467	0.968	active
35	MAPKAPK2	3	0.0195	0.154	0.0808	0.708	0.979	
36	MAPKAPK2	4	-0.12	0.169	-0.00694	0.812	0.931	

Reformatted: results already given
BMPR2 #4
- synergy score with trametinib: -0.195
- synergy score with BYL719: 0.0288
- synergy score with cetuximab: -0.175
- viability with trametinib (fraction of control): 0.938
- viability with vehicle only (fraction of control): 1
- call: inactive

IRAK3 #1
- synergy score with trametinib: 0.257
- synergy score with BYL719: -0.129
- synergy score with cetuximab: 0.0855
- viability with trametinib (fraction of control): 0.278
- viability with vehicle only (fraction of control): 0.719
- call: active

IRAK3 #2
- synergy score with trametinib: 0.233
- synergy score with BYL719: -0.0857
- synergy score with cetuximab: 0.126
- viability with trametinib (fraction of control): 0.24
- viability with vehicle only (fraction of control): 0.637
- call: active

IRAK3 #3
- synergy score with trametinib: -0.0592
- synergy score with BYL719: -0.241
- synergy score with cetuximab: 0.0852
- viability with trametinib (fraction of control): 0.563
- viability with vehicle only (fraction of control): 0.678
- call: inactive

IRAK3 #4
- synergy score with trametinib: 0.113
- synergy score with BYL719: 0.0696
- synergy score with cetuximab: -0.0613
- viability with trametinib (fraction of control): 0.63
- viability with vehicle only (fraction of control): 1
- call: active

HSPB8 #1
- synergy score with trametinib: 0.146
- synergy score with BYL719: -0.118
- synergy score with cetuximab: 0.0674
- viability with trametinib (fraction of control): 0.559
- viability with vehicle only (fraction of control): 0.949
- call: active
